Measured values published in paper doi:10.1101/2021.07.17.452750.
Results are given in words; binding and its absence hold for the method and conditions named. Binding seen in cells or lysates may run through a third protein. Some entries that bind do so weakly or less than the wild type. Where a sequence is shown, tags or fusion partners need not be part of it.

By UniProt entry, the sequences of proteins in these tests, tags left out. Where a name states a change or a piece, a line headed by the entry shows the natural chain unless it says otherwise. Chains listed by the source or under a name are the forms on record and can include a tag or linker.
UniProt Q96PV6: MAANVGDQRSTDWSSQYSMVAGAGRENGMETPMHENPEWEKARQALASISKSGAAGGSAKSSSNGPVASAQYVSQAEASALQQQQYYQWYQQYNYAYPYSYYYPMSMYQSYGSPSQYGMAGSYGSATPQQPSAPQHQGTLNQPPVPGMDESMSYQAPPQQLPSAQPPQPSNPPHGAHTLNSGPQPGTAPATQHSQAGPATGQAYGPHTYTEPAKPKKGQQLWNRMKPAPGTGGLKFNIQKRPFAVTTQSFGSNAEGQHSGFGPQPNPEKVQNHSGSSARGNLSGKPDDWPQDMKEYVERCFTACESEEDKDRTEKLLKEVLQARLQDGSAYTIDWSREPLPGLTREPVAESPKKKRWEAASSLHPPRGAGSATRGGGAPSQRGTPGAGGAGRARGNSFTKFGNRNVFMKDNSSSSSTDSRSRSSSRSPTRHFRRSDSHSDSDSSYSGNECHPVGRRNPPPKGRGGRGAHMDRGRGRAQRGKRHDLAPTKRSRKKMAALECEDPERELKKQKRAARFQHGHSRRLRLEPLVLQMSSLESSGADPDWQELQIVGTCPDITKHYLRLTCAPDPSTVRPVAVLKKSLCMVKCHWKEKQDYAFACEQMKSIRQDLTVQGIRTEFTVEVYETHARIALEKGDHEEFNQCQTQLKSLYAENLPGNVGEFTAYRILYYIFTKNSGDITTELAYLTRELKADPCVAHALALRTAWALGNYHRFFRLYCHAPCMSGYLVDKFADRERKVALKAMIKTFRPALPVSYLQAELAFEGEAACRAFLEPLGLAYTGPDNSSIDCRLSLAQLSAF
HA-tagged THOC6 (Q86W42-3, form named): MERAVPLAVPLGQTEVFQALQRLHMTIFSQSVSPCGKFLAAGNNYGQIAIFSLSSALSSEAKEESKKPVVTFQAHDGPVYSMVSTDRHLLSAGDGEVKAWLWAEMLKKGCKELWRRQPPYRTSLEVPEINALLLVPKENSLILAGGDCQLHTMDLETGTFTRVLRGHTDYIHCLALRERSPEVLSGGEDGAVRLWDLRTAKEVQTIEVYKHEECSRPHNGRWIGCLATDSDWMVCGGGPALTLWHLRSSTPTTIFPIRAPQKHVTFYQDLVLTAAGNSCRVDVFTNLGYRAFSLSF

Target: FLAG-tagged LENG8 (Leukocyte Receptor Cluster Member 8) (human) (UniProt Q96PV6)
Assay: co-IP

Molecule: HA-tagged THOC6 (from UniProt Q86W42-3 1-296)
- binding: binds

B1: HA-tagged THOC1 (protein, UniProt Q96FV9 1-657)
chain: MSPTPPLFSLPEARTRFTKSTREALNNKNIKPLLSTFSQVPGSENEKKCTLDQAFRGILEEEIINHSSCENVLAIISLAIGGVTEGICTASTPFVLLGDVLDCLPLDQCDTIFTFVEKNVATWKSNTFYSAGKNYLLRMCNDLLRRLSKSQNTVFCGRIQLFLARLFPLSEKSGLNLQSQFNLENVTVFNTNEQESTLGQKHTEDREEGMDVEEGEMGDEEAPTTCSIPIDYNLYRKFWSLQDYFRNPVQCYEKISWKTFLKYSEEVLAVFKSYKLDDTQASRKKMEELKTGGEHVYFAKFLTSEKLMDLQLSDSNFRRHILLQYLILFQYLKGQVKFKSSNYVLTDEQSLWIEDTTKSVYQLLSENPPDGERFSKMVEHILNTEENWNSWKNEGCPSFVKERTSDTKPTRIIRKRTAPEDFLGKGPTKKILMGNEELTRLWNLCPDNMEACKSETREHMPTLEEFFEEAIEQADPENMVENEYKAVNNSNYGWRALRLLARRSPHFFQPTNQQFKSLPEYLENMVIKLAKELPPPSEEIKTGEDEDEEDNDALLKENESPDVRRDKPVTGEQIEVFANKLGEQWKILAPYLEMKDSEIRQIECDSEDMKMRAKQLLVAWQDQEGVHATPENLINALNKSGLSDLAESLTNDNETNS
- binding: binds

B2: HA-tagged THOC5 (protein, UniProt Q13769 1-683)
chain: MSSESSKKRKPKVIRSDGAPAEGKRNRSDTEQEGKYYSEEAEVDLRDPGRDYELYKYTCQELQRLMAEIQDLKSRGGKDVAIEIEERRIQSCVHFMTLKKLNRLAHIRLKKGRDQTHEAKQKVDAYHLQLQNLLYEVMHLQKEITKCLEFKSKHEEIDLVSLEEFYKEAPPDISKAEVTMGDPHQQTLARLDWELEQRKRLAEKYRECLSNKEKILKEIEVKKEYLSSLQPRLNSIMQASLPVQEYLFMPFDQAHKQYETARHLPPPLYVLFVQATAYGQACDKTLSVAIEGSVDEAKALFKPPEDSQDDESDSDAEEEQTTKRRRPTLGVQLDDKRKEMLKRHPLSVMLDLKCKDDSVLHLTFYYLMNLNIMTVKAKVTTAMELITPISAGDLLSPDSVLSCLYPGDHGKKTPNPANQYQFDKVGILTLSDYVLELGHPYLWVQKLGGLHFPKEQPQQTVIADHSLSASHMETTMKLLKTRVQSRLALHKQFASLEHGIVPVTSDCQYLFPAKVVSRLVKWVTVAHEDYMELHFTKDIVDAGLAGDTNLYYMALIERGTAKLQAAVVLNPGYSSIPPVFQLCLNWKGEKTNSNDDNIRAMEGEVNVCYKELCGPWPSHQLLTNQLQRLCVLLDVYLETESHDDSVEGPKEFPQEKMCLRLFRGPSRMKPFKYNHPQGFFSHR
- binding: binds

B3: HA-tagged THOC3 (protein, UniProt Q96J01-1 1-351)
chain: MAVPAAAMGPSALGQSGPGSMAPWCSVSSGPSRYVLGMQELFRGHSKTREFLAHSAKVHSVAWSCDGRRLASGSFDKTASVFLLEKDRLVKENNYRGHGDSVDQLCWHPSNPDLFVTASGDKTIRIWDVRTTKCIATVNTKGENINICWSPDGQTIAVGNKDDVVTFIDAKTHRSKAEEQFKFEVNEISWNNDNNMFFLTNGNGCINILSYPELKPVQSINAHPSNCICIKFDPMGKYFATGSADALVSLWDVDELVCVRCFSRLDWPVRTLSFSHDGKMLASASEDHFIDIAEVETGDKLWEVQCESPTFTVAWHPKRPLLAFACDDKDGKYDSSREAGTVKLFGLPNDS
- binding: no binding

B4: HA-tagged THOC7 (protein, UniProt Q6I9Y2 1-204)
chain: MGAVTDDEVIRKRLLIDGDGAGDDRRINLLVKSFIKWCNSGSQEEGYSQYQRMLSTLSQCEFSMGKTLLVYDMNLREMENYEKIYKEIECSIAGAHEKIAECKKQILQAKRIRKNRQEYDALAKVIQHHPDRHETLKELEALGKELEHLSHIKESVEDKLELRRKQFHVLLSTIHELQQTLENDEKLSEVEEAQEASMETDPKP
- binding: no binding
